± gives the standard deviation. The entries are a selection whose mix differs from that of the whole data set. The uncertainty is large for many entries.
Tested on: MIWI (PIWIL1) piRISC loaded with piRNA #1 (30 nt)
Experiment: pre-steady-state target cleavage rate (min^-1); MIWI and MILI are mouse PIWI proteins and EfPiwi is from a freshwater sponge; tags in brackets are library labels; higher = faster piRNA-guided slicing of the target
Conditions: guide: piRNA #1 5'p-UGAGGUAGUAGGUUGUAUAGUAUCCAGAGG; auxiliary factor: 500 nM mouse GTSF1
How it was run: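 The method was Cleave-'n-Seq, in which uncleaved targets from a transcribed, DNA-blocked target RNA library were sequenced after exposure to active affinity-purified piRISC carrying one synthetic guide, with or without GTSF1 partner protein. Reactions contained 0.1 nM library, 1 nM piRISC and, where present, 500 nM GTSF1 in HEPES–potassium acetate buffer at 33 °C for 0–8 or 0–960 min. Reads were normalised to depth and to weakly complementary targets, three trials were pooled, and k3 was capped at 0.0001 min^-1. The pre-steady-state cleavage rate came from a burst-and-steady-state fit.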

Row | Sequence | pre-steady-state target cleavage rate
1 | GGAGACCUAUGAUAUGACCUACUACCUCA | 0.000341 ± 0.0078
2 | GGUCUGGAUACUAUUCAACCUACAACCUCA | 0.28 ± 0.033
3 | GGACUGGUUACUAUACAACCUACUACCUCA | 1.65 ± 0.13
4 | GGACUGGAUACUAUACAACCUAGUACCUGA | 0.00268 ± 0.0037
5 | GGAGACCUAUGAUAACAACCUACUACCUUCA | 0.000351 ± 0.0057
6 | GCUGUGCAUACUAUACAACCUACUACCUCA | 1.91 ± 0.12
7 | GGUCUGGAUACUAUACAACCUACAACCACA | 0.00192 ± 0.0027
8 | GGUCUGGAUACUAUACAACCCUACUACCUCA | 0.000673 ± 0.0068
9 | GGAGACCUAUGAAUACAUCCUACUACGUCA | 0.000404 ± 0.0046
10 | GGUCUCGAUACAAUACAACCUACUACCUCA | 1.77 ± 0.12
11 | GGUCUGGAUACUAUACAACUUACUACCUCA | 0.481 ± 0.028
12 | GCUCUGGAUACUAUACAACCUACUACUCA | 1.64 ± 0.14
13 | GGAGACCUAUGAAUACAACGUACAACCUCA | 0.000154 ± 0.023
14 | GGAGACCUAUGAAUACAAACUACUACCUCA | 0.00188 ± 0.0029
15 | GGAGACCUAUGAUAUGUUGCUCUACCUCA | 0.000139 ± 0.018
16 | GGACUGGAUACUAUACAACACUACUACCUCA | 0.000375 ± 0.019
17 | GGAGACCUAUGUAUACUACCUACUACCUGA | 0.00104 ± 0.0032
18 | GGACUGGAUACUAUACAACCUACACCUCA | 0.000286 ± 0.013
19 | GGACUUGAUACUAUACAACCUACUACCUCA | 1.73 ± 0.12
20 | GGAGACCUAUGUAAACAACCUACUACCACA | 0.00107 ± 0.0074

Row | Sequence | pre-steady-state target cleavage rate
21 | GGUCUUGGAUACUAUACAACCUACUACCUCA | 1.87 ± 0.11
22 | GCCCUGGAUACUAUACAACCUACUACCUCA | 2.17 ± 0.12
23 | GGAGACCAAACUAUACAACCUAGUACCUCA | 0.226 ± 0.033
24 | GCUCAGGAAACUAUACAACCUACUACCUCA | 1.78 ± 0.1
25 | GGAGACCAUACUAUACAACCUACCUACCUCA | 1.06 ± 0.066
26 | GGAGACCUAUGAAUACUACCUACUACCACA | 0.000179 ± 0.017
27 | GGUCUGGAUACUAUACAACCUACUAGGUCA | 0.000442 ± 0.0055
28 | GGUCUGGAUACAUACAACCUACUACCUCA | 1.44 ± 0.11
29 | CCUCUCCAUACUAUACAACCUACUACCUCA | 2.04 ± 0.12
30 | CCUGUGGAUACUAUACAACCUACAACCUCA | 0.383 ± 0.043
31 | GCUCUGGAUACUAUACAACCUACUACCUUCA | 1.9 ± 0.13
32 | GCUCAGGAUACUAAACAACCUACUACCUCA | 1.95 ± 0.12
33 | GCUCUGGAUACUAUUCAACCUACAACCUCA | 1.3 ± 0.099
34 | GGUCUAGGAUACUAUACAACCUACUACCUCA | 1.83 ± 0.1
35 | GGACUGGAUACUAUACAACCUUGAACCUCA | 0.000593 ± 0.009
36 | GGAGACCUAUGAUAACCAACCUACUACCUCA | 0.000247 ± 0.011
37 | GCACUGGAUACUAUACAACCAACUACCUCA | 0.167 ± 0.017
38 | GGAGACCUAUCUAUACAACCAUCUACCUCA | 0.00254 ± 0.0044
39 | GGAGACCUAUGAUAUGUACCUACUACGAGA | 0.000185 ± 0.039
40 | GCUCUGGAUACUAUACAACCUUGAACCUCA | 0.00263 ± 0.0027

Part of the list above, field by field:
GGUCUGGAUACUAUACAACCUACAACCACA
  pre-steady-state target cleavage rate: 0.00192 ± 0.0027
GGAGACCUAUGAUAUGUUGCUCUACCUCA
  pre-steady-state target cleavage rate: 0.000139 ± 0.018
